Assay results published in publication PMC7819943, “Rice protein-binding microarrays: a tool to detect cis-acting elements near promoter regions in rice”.
Some of the results follow.

Chains of the proteins cited; added tags and fusions are not shown.
UniProt Q0JBA9, entry or part of it: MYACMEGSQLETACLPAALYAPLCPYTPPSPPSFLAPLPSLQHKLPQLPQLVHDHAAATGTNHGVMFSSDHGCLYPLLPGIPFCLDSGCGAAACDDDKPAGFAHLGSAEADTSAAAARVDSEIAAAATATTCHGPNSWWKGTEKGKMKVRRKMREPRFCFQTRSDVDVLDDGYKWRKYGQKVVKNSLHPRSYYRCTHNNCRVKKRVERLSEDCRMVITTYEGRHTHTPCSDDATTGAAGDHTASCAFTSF

Target: OsWRKY34 (Oryza sativa, UniProt Q0JBA9 1-250)
Test: protein-binding microarray (RPBM); PBS, 2% BSA, 51.3 ng/ul salmon testes DNA, 50 uM zinc acetate, 200 nM TF, 25 C, 1 h; high values mean tight binding
Conditions: protein: recombinant; tags: N-terminal polyhistidine and DsRed monomer fusion (pET32a); label: CyDye5-dUTP incorporated in the synthesized complementary strand; 3' TTTTT single-stranded linker to array surface; dsDNA, one strand shown
Method in brief: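 Transcription factors were each fused at the N-terminus to a polyhistidine tag plus DsRed and expressed in E. coli BL21-CodonPlus before Ni–NTA purification. Binding to a double-stranded custom Agilent array was carried out with 200 nM protein at 25 °C for 1 h in PBS, 2% BSA, salmon testes DNA and 50 µM zinc acetate. The binding signal is per-feature fluorescence intensity, in arbitrary units, on an Axon 4000B scanner.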

Sequence | binding signal
ACTTCCTTTCTTGTTAAGTTGGCGTGATGTTTTCTGCTGACGGAGTCACCTAGTGCAG | 8300 fluorescence intensity (a.u.)
TAGAATATACAGTTTCAGTCGGGCTCTGCGCTCAGTTTGTCGGAGTCACCTAGTGCAG | 9560 fluorescence intensity (a.u.)
CTCTCCCATCGTGACTACTTTTGTCTGGATATTGTTTGCGCGGAGTCACCTAGTGCAG | 10400 fluorescence intensity (a.u.)
GATTCTTCATATTTTGTTCAGATCTCTGCCTATTCTTCTCCGGAGTCACCTAGTGCAG | 8860 fluorescence intensity (a.u.)
GTTCATCCTTCACTATCTCTTTGAAAGATTCTTCATGATTCGGAGTCACCTAGTGCAG | 8730 fluorescence intensity (a.u.)
TCGTTTCAGTTTTCTTGCTCACGATTTAGGTTTGTTTCCTCGGAGTCACCTAGTGCAG | 10000 fluorescence intensity (a.u.)
ATCCATACCCTAATATGTCCATCGTTGCTGGTGCTTGGCACGGAGTCACCTAGTGCAG | 8230 fluorescence intensity (a.u.)
CACTATAGTCTTTTACAACCGTCGATAAAATTCAGTCGTACGGAGTCACCTAGTGCAG | 8270 fluorescence intensity (a.u.)
GGACACCCACGTCCACATCGGCGACCGCCGCCCCAACGCCCGGAGTCACCTAGTGCAG | 8330 fluorescence intensity (a.u.)
GGTGGGGTCTCGTCTCGTCGCCGGTGAAGCCGCCGCCATGCGGAGTCACCTAGTGCAG | 10600 fluorescence intensity (a.u.)
TTTGTGCAATCTGCAGTCGTCCCATGTCGATTTTGTGCAACGGAGTCACCTAGTGCAG | 8240 fluorescence intensity (a.u.)
CGGAGAGAGCAGGGGCGGTGGGCGGTGGGCCCGTGCTCGCCGGAGTCACCTAGTGCAG | 8500 fluorescence intensity (a.u.)
GTTTATTGTATTTGGAGTAAGTGATTGTAACTTTTTTTTACGGAGTCACCTAGTGCAG | 9200 fluorescence intensity (a.u.)
CTAATACTTAATTAATCACGCGCTAATGGACCGTTTCGTTCGGAGTCACCTAGTGCAG | 10200 fluorescence intensity (a.u.)
TCACACGGTTGCAAGAGTCTACATTTTAACATGTTTTTTTCGGAGTCACCTAGTGCAG | 8040 fluorescence intensity (a.u.)
TCTAACTACTACCATGCACCTTTCTCTTTATTTGCATAAGCGGAGTCACCTAGTGCAG | 9320 fluorescence intensity (a.u.)
GTATCCTAGTTAACCCAAGTGTTTAATTCTGTCTGTATACCGGAGTCACCTAGTGCAG | 8670 fluorescence intensity (a.u.)
AGACACCACCTACCGCGCGCGTCGCGTACTCGCGTGCCCACGGAGTCACCTAGTGCAG | 9060 fluorescence intensity (a.u.)
CGCCGTCATCCTTCTTTCCACGCCATCGCCGTCGCCGATTCGGAGTCACCTAGTGCAG | 13300 fluorescence intensity (a.u.)
GATGTTTCTGCTGCTGCAGTCATTGGCATCCAGTGCTTTCCGGAGTCACCTAGTGCAG | 8380 fluorescence intensity (a.u.)
TATTGGTTTTTGTTTCTGGTGCCACGTCTGCGGCCAAAAACGGAGTCACCTAGTGCAG | 9220 fluorescence intensity (a.u.)

Sequence | binding signal
TAGGGTTTGGTTGGGTTTTTGGGTGTTTTCAGACGGAGAGCGGAGTCACCTAGTGCAG | 12800 fluorescence intensity (a.u.)
AAAAAAAAACTAGCACCATACCGATCACTGCTATGTGTGACGGAGTCACCTAGTGCAG | 8950 fluorescence intensity (a.u.)
TCGTCCATGCTCCATACCCCATGTTACCCCATCGCTCATTCGGAGTCACCTAGTGCAG | 9610 fluorescence intensity (a.u.)
AATATGCATCGCTTCCATGTTGACATGTTTCTAAGTGTCACGGAGTCACCTAGTGCAG | 8320 fluorescence intensity (a.u.)
GTTCTTCGTTAATACGGTGCTTTCATTATTTTGTTTTCCCCGGAGTCACCTAGTGCAG | 16600 fluorescence intensity (a.u.)
CATCGACGCACGCGTCGTCGCGTACCATATATCGCACGCGCGGAGTCACCTAGTGCAG | 8040 fluorescence intensity (a.u.)
AATCTAACGGGTGGGTCTCATGTATTGATGAGGAAGAAGACGGAGTCACCTAGTGCAG | 20800 fluorescence intensity (a.u.)
CCATCGCTAGACCGTTAGTTCCGCTGCTGTTTTTCTTTTCCGGAGTCACCTAGTGCAG | 10300 fluorescence intensity (a.u.)
GGTGATTTTTCCGACTCGGCCACGTGAATTTTCCGACTCGCGGAGTCACCTAGTGCAG | 8180 fluorescence intensity (a.u.)
TGTACTTTTCCCAATCCCTAGTCATCCCTTTACTAGGCCCCGGAGTCACCTAGTGCAG | 9790 fluorescence intensity (a.u.)
CTGTTCGACGTTTTACCACCAGCGCCCACGGGATTTTCACCGGAGTCACCTAGTGCAG | 9420 fluorescence intensity (a.u.)
GTCGCTTCGTGTTTTATCTGAGAGTTGTTGCTTTATTATTCGGAGTCACCTAGTGCAG | 14200 fluorescence intensity (a.u.)
TGGCTAACTACTCAACATGCACTTGGTTCATTCGCCGTCACGGAGTCACCTAGTGCAG | 8680 fluorescence intensity (a.u.)
TACCGGCGATTCTCCTGCGCGCGGCCGCCGCCGCCCCAGCCGGAGTCACCTAGTGCAG | 8250 fluorescence intensity (a.u.)
AAAATCTGTCATCGTCGTATCATGCATGTCGAATGTTTTGCGGAGTCACCTAGTGCAG | 8380 fluorescence intensity (a.u.)
GTGTCTGCGACAACCGGCTGTGGGGAGGTTAGGAATTTTCCGGAGTCACCTAGTGCAG | 9280 fluorescence intensity (a.u.)
TTGATAGGTGAGGGACCCGTTATGTCTGGTTTTCCAATCGCGGAGTCACCTAGTGCAG | 8650 fluorescence intensity (a.u.)
ACGATAAACTCACCAAACCCGTCCCACCGCAGCCCACCGACGGAGTCACCTAGTGCAG | 8190 fluorescence intensity (a.u.)
AATGTGTATTGATATATCCGATGTGACAGCTAAATTTAAACGGAGTCACCTAGTGCAG | 8740 fluorescence intensity (a.u.)
AGTACTGGGAGGGAGGGAGTCTGTCTCAACCTGCATTTGCCGGAGTCACCTAGTGCAG | 9500 fluorescence intensity (a.u.)
CTCTGCCAAACAAACCGCTAGACTTCATCCTCGCTCTCTCCGGAGTCACCTAGTGCAG | 10900 fluorescence intensity (a.u.)

Reformatted: results already given
Sequence,binding signal
ACGATAAACTCACCAAACCCGTCCCACCGCAGCCCACCGACGGAGTCACCTAGTGCAG,8190 fluorescence intensity (a.u.)
AATGTGTATTGATATATCCGATGTGACAGCTAAATTTAAACGGAGTCACCTAGTGCAG,8740 fluorescence intensity (a.u.)
AGTACTGGGAGGGAGGGAGTCTGTCTCAACCTGCATTTGCCGGAGTCACCTAGTGCAG,9500 fluorescence intensity (a.u.)
CTCTGCCAAACAAACCGCTAGACTTCATCCTCGCTCTCTCCGGAGTCACCTAGTGCAG,10900 fluorescence intensity (a.u.)

(listing goes on)

Sequence | binding signal
CATACCTCATCAGATCATGCCCGTCATCTCCGTCATCTCCCGGAGTCACCTAGTGCAG | 9310 fluorescence intensity (a.u.)
TTTTTGTTTTTTAATTGTGGAGTTTGGGAGGAGGAGGGGACGGAGTCACCTAGTGCAG | 9870 fluorescence intensity (a.u.)
TTTCCTGCTTTGTTTGATCATATCTGTGTGTTTTGTCCTACGGAGTCACCTAGTGCAG | 14100 fluorescence intensity (a.u.)
AATCCCAGCTCTATGTGTCCTCGAGCTTCTTGTCCTAGACCGGAGTCACCTAGTGCAG | 9720 fluorescence intensity (a.u.)
GCCTTAGGAATCACCATTTTGTTACTACATTTTAACTGTTCGGAGTCACCTAGTGCAG | 9670 fluorescence intensity (a.u.)
ATAGAGTTCCTGTTTGTATTCTCGAAAGAGTTCCTGTTTGCGGAGTCACCTAGTGCAG | 9960 fluorescence intensity (a.u.)
TCTATGGGTTCTGTTCCGTTCTGTTCTGGCGCTCCTCTCTCGGAGTCACCTAGTGCAG | 13700 fluorescence intensity (a.u.)
GGGCGGAGAGTTGGGGTTTGGGTTGGTGGCGGTGGGCCGGCGGAGTCACCTAGTGCAG | 14800 fluorescence intensity (a.u.)
CTCTTCCATTGCAAAATGCACGTTAAGACCATGTTTTAAACGGAGTCACCTAGTGCAG | 8370 fluorescence intensity (a.u.)
TATTGCACCGGTTTCTGGATTCTGGTTGAACGACGAAAATCGGAGTCACCTAGTGCAG | 8070 fluorescence intensity (a.u.)
TATGTTGTTTAGGGGCGGATCTATAGTATATGCGTCGGTGCGGAGTCACCTAGTGCAG | 8580 fluorescence intensity (a.u.)
GAGACTTTGGGGATCAAGATGACACAACCCTACATGTTTACGGAGTCACCTAGTGCAG | 8040 fluorescence intensity (a.u.)
GGAGGGTGGGGTAGGAGAGGATGCGGCGGGCGCCATGGCTCGGAGTCACCTAGTGCAG | 8590 fluorescence intensity (a.u.)
AATCTTGTCTTTAGAGTGTATGCATTTGGTTTGTATAGGTCGGAGTCACCTAGTGCAG | 8350 fluorescence intensity (a.u.)
GCACCAGAGTGCTCCGAGGCTTTTCTTACTGGCATGTTTGCGGAGTCACCTAGTGCAG | 8590 fluorescence intensity (a.u.)
CCGCCGCCACCACCACCGCCACCGCCGCCGCCGAGCGATGCGGAGTCACCTAGTGCAG | 9880 fluorescence intensity (a.u.)
TTTCTGTCCATTATGTTTAAACCTCAATATCAGACATCTTCGGAGTCACCTAGTGCAG | 8670 fluorescence intensity (a.u.)
GGCCTTGTGTTTTCTGTACATCGCTGTCGTCTCCTCAGTCCGGAGTCACCTAGTGCAG | 15200 fluorescence intensity (a.u.)
CTTTGCATTTCCGCCTCGTCTTTTCCGCCTCGTCTTTTCGCGGAGTCACCTAGTGCAG | 9920 fluorescence intensity (a.u.)
AATCTACCATTTTTCACGAAATTCCATCGGTTCTATGAACCGGAGTCACCTAGTGCAG | 8820 fluorescence intensity (a.u.)
ACATGTTTTCCAGTTTTCCTGTTGCATACAAATGCATCTGCGGAGTCACCTAGTGCAG | 8440 fluorescence intensity (a.u.)

Another view of some results above.
Sequence	binding signal
TTTCTGTCCATTATGTTTAAACCTCAATATCAGACATCTTCGGAGTCACCTAGTGCAG	8670 fluorescence intensity (a.u.)
AATCTACCATTTTTCACGAAATTCCATCGGTTCTATGAACCGGAGTCACCTAGTGCAG	8820 fluorescence intensity (a.u.)

Following part

Sequence | binding signal
CTTTCGGTTGGGCTATTTGTATCTGCGGTGGCCGAAATATCGGAGTCACCTAGTGCAG | 9350 fluorescence intensity (a.u.)
ATATATATATATATATATACCTGTCGATGGTAAAATATGACGGAGTCACCTAGTGCAG | 9860 fluorescence intensity (a.u.)
AAGTCTCAACGCACTCCGGTCAACGCTACGGTCAAACAGACGGAGTCACCTAGTGCAG | 8630 fluorescence intensity (a.u.)
CTGCTCTGCTCCTTGACTTCTTCTTGCCACACAGCAGTACCGGAGTCACCTAGTGCAG | 9060 fluorescence intensity (a.u.)
TTCTGTTGACTTTTCAGATAATATTTAATTGTTCTTCTTACGGAGTCACCTAGTGCAG | 16000 fluorescence intensity (a.u.)
GCCCGACTCCATTCATGTCAATCTCAGCATATCTTTTTTTCGGAGTCACCTAGTGCAG | 13300 fluorescence intensity (a.u.)
TGCAAGGCTTCTTGGATTTTAGTGTGGCTTCTCTGCTCTCCGGAGTCACCTAGTGCAG | 8860 fluorescence intensity (a.u.)
AACTTCTTGCATGTGCCTTTTTTATCATCTGCATATATTTCGGAGTCACCTAGTGCAG | 10300 fluorescence intensity (a.u.)
ATTTTCTTGCACACTGAACTAGTGAACTTTTTTCCCTGTCCGGAGTCACCTAGTGCAG | 9450 fluorescence intensity (a.u.)
GTGGTCTGCTTGCTTTTGGTCCTATCCTTTGTAGTCAAGACGGAGTCACCTAGTGCAG | 9570 fluorescence intensity (a.u.)
TCGGGCGTTGTTTGACCGAAGTTGACCGTCTACGTGGCATCGGAGTCACCTAGTGCAG | 11500 fluorescence intensity (a.u.)
GTGGCCAGCCATCCCATCCGGATTTCGAATTTACTCCCTTCGGAGTCACCTAGTGCAG | 8600 fluorescence intensity (a.u.)
TAGCAAAATTTTCCTTGTTTTTAGGTTGACCATCTGTTTTCGGAGTCACCTAGTGCAG | 9380 fluorescence intensity (a.u.)
CCTCGTATGTCATGTTGTCTGGATCATCGTTATCATCCTGCGGAGTCACCTAGTGCAG | 9710 fluorescence intensity (a.u.)
CTCCCGAATCGCCTCTCGCGTCGCCCTCTCGTGACGTCATCGGAGTCACCTAGTGCAG | 8470 fluorescence intensity (a.u.)
GGTCGTGCAGCTCCGGCCGCCGCTCTCTCGCCTGCCGCCGCGGAGTCACCTAGTGCAG | 8560 fluorescence intensity (a.u.)
ATTTTGCTTGTGTGGATCTATTTCTCCATTCTGTGGATATCGGAGTCACCTAGTGCAG | 11300 fluorescence intensity (a.u.)
CCGTCGCCGGCGGCGGATCGGCCCCACATCACCTCGGCCTCGGAGTCACCTAGTGCAG | 8410 fluorescence intensity (a.u.)
ACCAATTTCTCCATTCCTCACATATTTGCAGCCTTTAACACGGAGTCACCTAGTGCAG | 9320 fluorescence intensity (a.u.)
TAATATTTACATTTCTCGATGCCCATGTAGCTAATCTTGTCGGAGTCACCTAGTGCAG | 10800 fluorescence intensity (a.u.)
CTGAATGGTGACACATACCCACCCAGACCCGCATCTGTCTCGGAGTCACCTAGTGCAG | 8500 fluorescence intensity (a.u.)
